In publication PMC10140043:
For at least one entry, the source does not settle the construct or the ends of the probe. Tags and fusion partners may be left off the protein sequences shown.

Key:
[1] = biological target: T1, monomeric C-reactive protein (mCRP) (human) (UniProt P02741); test: binding assay; conditions: No direct binding assay in this paper (only cell-free TX-TL mRFP1 riboswitch reporter assays, left out); Kd values are cited and their conditions are not given
T1 sequence (looked up, limits assumed): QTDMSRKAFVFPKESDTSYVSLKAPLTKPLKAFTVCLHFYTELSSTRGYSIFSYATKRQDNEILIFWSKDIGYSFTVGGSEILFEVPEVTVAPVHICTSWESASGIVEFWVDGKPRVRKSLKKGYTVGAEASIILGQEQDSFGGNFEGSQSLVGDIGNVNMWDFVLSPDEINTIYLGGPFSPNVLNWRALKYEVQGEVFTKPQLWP

[2] = biological target: T2, interleukin-32 gamma (IL-32γ) (human) (UniProt P24001); test: binding assay; conditions: No direct binding assay in this paper (only cell-free TX-TL mRFP1 riboswitch reporter assays, left out); Kd values are cited and their conditions are not given
T2 sequence (looked up, limits assumed): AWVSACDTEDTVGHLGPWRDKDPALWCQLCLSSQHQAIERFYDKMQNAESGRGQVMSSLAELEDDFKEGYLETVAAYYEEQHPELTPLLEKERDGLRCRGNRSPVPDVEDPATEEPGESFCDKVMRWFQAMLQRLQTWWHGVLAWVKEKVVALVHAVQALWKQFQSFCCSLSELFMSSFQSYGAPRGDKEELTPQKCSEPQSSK

Row | Sequence | Kd [1] | Kd [2]
1 | GCCUGUAAGGUGGUCGGUGUGGCGAGUGUGUUAGGAGAGAUUGC [VT2d0 (full), mCRP aptamer, 44 nt] | 188 nM | –
2 | GGGUUCACUGCAGACUUGACGAAGCUUCCGGAGAGAAGGGUCAAAGUUGUGCGGGAGUGUGUUGUGGAAUGGAUCCACAUCUACGAAUUC [AC3-3 (full), IL-32γ aptamer, 90 nt] | – | 78 nM
